No constants are given. Whether binding was seen depends on the method and setting. Binding calls can cover weak binding; strength is not graded here. Tags and fused reporters may be left off the sequences shown.
Target: T1, SNA-3 (yeast two-hybrid fusion) (C. elegans) (UniProt Q9GYR5)
T1 sequence: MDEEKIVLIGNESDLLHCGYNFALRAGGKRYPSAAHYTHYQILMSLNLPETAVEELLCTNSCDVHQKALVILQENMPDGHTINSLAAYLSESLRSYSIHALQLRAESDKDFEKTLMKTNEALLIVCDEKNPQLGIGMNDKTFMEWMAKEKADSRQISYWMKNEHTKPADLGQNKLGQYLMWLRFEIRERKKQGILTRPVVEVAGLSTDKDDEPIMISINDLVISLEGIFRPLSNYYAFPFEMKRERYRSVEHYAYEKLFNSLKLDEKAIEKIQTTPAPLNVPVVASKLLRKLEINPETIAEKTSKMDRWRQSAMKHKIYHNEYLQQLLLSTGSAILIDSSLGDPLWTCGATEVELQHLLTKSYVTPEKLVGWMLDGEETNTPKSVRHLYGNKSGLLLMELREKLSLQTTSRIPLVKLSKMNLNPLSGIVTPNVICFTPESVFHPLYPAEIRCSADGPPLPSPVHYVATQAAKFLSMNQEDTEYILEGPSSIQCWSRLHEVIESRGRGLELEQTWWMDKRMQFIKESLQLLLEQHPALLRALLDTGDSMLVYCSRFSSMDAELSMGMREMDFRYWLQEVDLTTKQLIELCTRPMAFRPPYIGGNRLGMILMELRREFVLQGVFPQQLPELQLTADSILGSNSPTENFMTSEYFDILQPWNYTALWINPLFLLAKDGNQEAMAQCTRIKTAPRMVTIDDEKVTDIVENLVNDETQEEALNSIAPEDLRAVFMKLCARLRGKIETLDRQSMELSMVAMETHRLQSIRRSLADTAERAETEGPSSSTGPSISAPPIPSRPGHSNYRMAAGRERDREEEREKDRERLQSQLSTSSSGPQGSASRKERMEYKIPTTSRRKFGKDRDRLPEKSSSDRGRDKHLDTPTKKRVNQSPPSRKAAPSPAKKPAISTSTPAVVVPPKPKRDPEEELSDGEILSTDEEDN
Assay: two-hybrid; Gal4 DNA-binding domain fusions (pGBKT7, Y2HGold) mated with Gal4 activation domain fusions (pGADT7, Y187); growth on -Ade -His -Leu -Trp compared with -Leu -Trp

Row | Substance | binding
1 | SUT-1 (yeast two-hybrid fusion) (C. elegans) | binds
2 | SUT-1 with the N-terminal motif deleted (yeast two-hybrid fusion) (C. elegans) (domain or fragment) | binds
